Assay [1] is described as follows: Validation of Assay for Modulators of Lamin A Splicing (AID 1459). Particulars: Lamin A splicing dual RFP/GFP fluorescence reporter, ratio. In a few lines:
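Splicing correction is reported by an EGFP-containing lamin A minigene in stably transfected S3 HeLa cells, while DsRed2 controls for viability and nonspecific signal. Cells are exposed to compounds for 48 hrs before the GFP over RFP ratio is taken.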

Assay [2] is described as follows: qHTS Assay for Lipid Storage Modulators (AID 1519). To be noted: Drosophila S3 cells, BODIPY lipid droplet/cell ratio, laser cytometry, cells loaded with oleic acid. Summed up:
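Cells seeded at 5,000 per well were treated with compounds over a concentration series and loaded with oleic acid (400 uM, as added). Lipid droplet fluorescence (488 nm excitation, 500-530 nm channel) was read by laser-scanning cytometry and normalized to 20 uM Triacsin C.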
(In general: In qHTS, concentration-response curves come from the screen itself.)

Assay [3] in a line: qHTS Assay for Modulators of Human Peripheral Myelin Protein 22 (PMP22) Expression/Activity (AID 1967). Particulars: Cell-based PMP22 reporter, dual-color luciferase ratio. In a few lines:
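Quantitative HTS in a mouse Schwann cell line expressing dual click beetle luciferases: Pmp22 promoter (green) and control EF-alpha promoter (red). After 24h treatment, corrected green/red signal ratio gave %Activity relative to untreated cells.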

The nature of assay [4]: qHTS Validation Assay to Find Inhibitors of Chronic Active B-Cell Receptor Signaling (AID 485345). Particulars: ABC-DLBCL cells, chronic BCR signaling reporter. In a few lines:
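TMD8 ABC-DLBCL cells with dox-inducible green luciferase–IκBα fusion and red native luciferase; compounds 46 uM–3 nM, 4 h at 37C with doxycycline in 0.5% FBS IMDM. Green/red ratio normalized to basal and 10 uM MG-132.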

A short description of assay [5]: Nrf2 qHTS screen for inhibitors: Validation (AID 493153). Particulars: A549 ARE-Fluc reporter, 18-24 h; AC50: CellTiter-Fluor fluorescence read, measured here: cytotoxicity CellTiter-Fluor AC50; viability change: measured here: cytotoxicity max response. In a few lines:
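A549 cells carrying an ARE-driven firefly luciferase reporter, in 5% FBS OPTI-MEM, were treated with compounds in concentration-response for 18-24 h at 37°C. Viability was read by CellTiter-Fluor fluorescence, then Nrf2 activity by luciferase luminescence.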

A short description of assay [6]: qHTS drug screen for cell cycle checkpoint inhibitors in PARPi-resistant BRCA-mutant ovarian cancer cell lines. (AID 1963452). Particulars: PEO1/OlaR viability, CellTiter-Glo luminescence, 96 h. Summed up: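 PEO1, PEO4 and PEO1/OlaR ovarian cancer cells, 600 per well, exposed 96 h at 37C to a dilution series. Viability read by CellTiter-Glo luminescence, normalized to DMSO and empty wells; activity summarized as Z-AUC.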

Assay [7] can be described thus: qHTS for identification of novel therapeutic agents for treatment of microphthalmiaassociated transcription factor (MiT) renal cell carcinoma (RCC) (AID 1963991). To be noted: CellTiter-Glo, 48 h; for z-score: stronger effect = lower value. In a few lines:
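Three TFE3-fusion RCC lines (UOK109, UOK124, UOK145), 500 cells/well in complete medium, were treated with MIPE 4.0 compounds for 48 hours at 37 C. Viability was by CellTiter-Glo luminescence, normalized to DMSO (100%) and empty wells (0%); curves fitted over 11 concentrations.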

The nature of assay [8]: A High-Content qHTS Against Drug Library for the Identification of Small Molecules that Inhibit DYT1 Early Onset Primary Dystonia-Associated Cell Pathology (AID 1645839). To be noted: HEK293 Flp-In EGFP-delE TorsinA, punctate imaging, 48 h; measured here: cell count cytotoxicity. Summed up:
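Readout: %pathology, the punctate EGFP-TorsinA distribution from imaging, as the primary channel and cell count as the toxicity counterscreen. HEK293 Flp-In cells expressing delE TorsinA were induced with tetracycline and treated with compound for 48 h.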

[9] abbreviates: measured here: cell count channel max response.
[10] abbreviates: measured here: lipid (BODIPY) channel AC50.
The mark [11] stands for this setting: measured here: lipid channel max response.
[12] abbreviates: measured here: green reporter channel AC50, mouse Pmp22 promoter in mouse Schwann cells.
[13] abbreviates: measured here: red reporter channel AC50, EF-alpha promoter control reporter in MSC80 mouse Schwann cells.
The mark [14] stands for this setting: measured here: CBG/CBR ratio read-out.
[15] abbreviates: measured here: CBR control luciferase (viability counter).
[16] abbreviates: measured here: cell number channel AC50.

Several values for one entry are separate records, joined by “and”; a condition that tells them apart may be missing. Equal values may be shown once. The list shows a part of the results. These are further read-outs of the screen, such as a control signal, another cell line or another target. No call is given for them. For some assays here: Most of these compounds were active or inconclusive in the main read-out, so they are no random draw. The note in brackets gives the kind of curve behind each potency; many fits are weak. Peptide text beside a SMILES is read from it. * marks the point of attachment. Cbz = O=C(OCc1ccccc1)*

For orientation: AC50 means the concentration giving half of the maximal activity seen. In the case of `O=Nc1c(-c2c(O)[nH]c3cc(Br)ccc23)[nH]c2ccccc12`, the concentration at half-maximal activity (AC50) in assay [1] (measured here: GFP channel) was 3.55 µM [rising, partial curve]; in assay [1] (measured here: RFP channel), 22.4 µM [falling, partial curve]; in assay [2] (setting [10]), 22.4 µM [falling, full curve, poor fit]; in assay [3] (setting [12]), 21.3 µM [falling, full curve]; in assay [3] (setting [13]), 16.9 µM [falling, full curve]; in assay [4] (setting [14]), 4.61 µM [falling, partial curve]. For the same compound, the AC50 is 6.51 µM [falling, partial curve] in assay [4] (setting [15]); 20.6 µM [falling, partial curve] in assay [5]; 9.77 µM [falling, partial curve] in assay [6] (measured here: PEO1 parental viability); 8.71 µM [falling, partial curve] in assay [6] (measured here: PEO4 viability); 18.7 µM [falling, partial curve] in assay [7] (TFE3-RCC viability, measured here: UOK124 cell viability); 14.8 µM [falling, partial curve] in assay [7] (TFE3-RCC viability, measured here: UOK145 cell viability). The max response was -53.9% in assay [2] (setting [9]) and -87.7% in assay [2] (setting [11]). The viability change in assay [5] was -67.4%. The z-score in assay [7] (TFE3-RCC UOK109 viability, measured here: UOK109 Z-AUC) is -0.588; in assay [7] (TFE3-RCC viability, measured here: UOK124 Z-AUC), -0.737; in assay [7] (TFE3-RCC viability, measured here: UOK145 Z-AUC) it was -0.88.
`CC12C(=O)OC(=O)C1(C)C1CCC2O1` (configuration not stated): the AC50 in assay [1] (measured here: GFP channel) was 3.55 µM [falling, full curve]; in assay [1] (measured here: RFP channel), 4.47 µM [falling, full curve]; in assay [2] (setting [16]), 316 nM [falling, full curve, poor fit] and 7.08 µM [falling, full curve, poor fit]; in assay [2] (setting [10]) it was 3.55 µM [falling, partial curve, poor fit] and 7.94 µM [falling, full curve, poor fit]; in assay [3] (setting [12]) it was 21.3 µM [falling, full curve]; in assay [3] (setting [13]), 21.3 µM [falling, full curve]. For the same compound, the AC50 in assay [4] (setting [15]) was 11.6 µM [rising, partial curve]; in assay [5], 1.84 µM [falling, full curve]. The max response was -28.9% and -53.7% in assay [2] (setting [9]); -56.8% and -55% in assay [2] (setting [11]). In addition, the viability change in assay [5] was -40%.
With `Cn1cc(C2=C(c3ccc(Cl)cc3Cl)C(=O)NC2=O)c2ccccc21`, the AC50 is 14.1 µM [rising, partial curve] in assay [1] (measured here: GFP channel); 14.1 µM [rising, partial curve] in assay [1] (measured here: RFP channel); 2.82 µM [rising, full curve] in assay [2] (setting [16]); 0.708 µM [rising, full curve, poor fit] in assay [2] (setting [10]); 42.6 µM [falling, partial curve] in assay [3] (setting [12]); 13 µM [falling, partial curve, poor fit] in assay [4] (setting [14]). Also, the AC50 in assay [4] (setting [15]) was 4.61 µM [falling, single point]. Besides, the max response in assay [2] (setting [9]) is 69.4% and 36.7%; in assay [2] (setting [11]), 30.4% and 34.7%.
`CN(C)C/C=C(/c1ccc(Br)cc1)c1cccnc1`: the AC50 in assay [1] (measured here: GFP channel) was 35.5 µM [falling, single point]; in assay [1] (measured here: RFP channel), 35.5 µM [falling, single point]; in assay [2] (setting [10]) it was 39.8 µM [rising, single point]; in assay [3] (setting [12]) it was 37.9 µM [falling, partial curve]; in assay [3] (setting [13]), 60.1 µM [falling, partial curve, poor fit]; in assay [8] it was 11.2 µM [falling, partial curve, poor fit]. Besides, the figures for the max response in assay [2] (setting [9]) and in assay [2] (setting [11]) were 40% and 41.2%, respectively.
`CCCCCCCCCCCCC/C=C/[C@@H](O)[C@@H](N)CO`: the AC50 in assay [1] (measured here: GFP channel) is 25.1 µM [falling, single point]; in assay [1] (measured here: RFP channel) it was 25.1 µM [falling, single point]; in assay [2] (setting [16]), 0.0112 µM [falling, full curve, poor fit]; in assay [2] (setting [10]), 0.0112 µM [falling, full curve, poor fit]; in assay [3] (setting [12]), 26.9 µM [falling, single point]. Moreover, the max response is -30.7% in assay [2] (setting [9]) and -33.7% in assay [2] (setting [11]).
For the compound `COc1ccccc1N1CCN(CCCCNS(=O)(=O)c2cccc3c(N(C)C)cccc23)CC1`, the AC50 in assay [1] (measured here: GFP channel) is 35.5 µM [falling, single point]; in assay [1] (measured here: RFP channel) it was 35.5 µM [falling, single point]; in assay [2] (setting [16]) it was 0.00224 µM [falling, full curve, poor fit]; in assay [3] (setting [12]), 42.6 µM [falling, full curve]; in assay [3] (setting [13]) it was 42.6 µM [falling, partial curve]; in assay [4] (setting [14]) it was 29.1 µM [falling, single point]. Besides, the max response in assay [2] (setting [9]) is -23.7%; in assay [2] (setting [11]), -27.9%.
On to `CC(C)[C@H](NC(=O)OCc1ccccc1)C(=O)N[C@H](C=O)Cc1ccccc1` (Cbz-Val-Phe-aldehyde), for which the AC50 in assay [1] (measured here: GFP channel) was 25.1 µM [falling, partial curve]; in assay [1] (measured here: RFP channel), 25.1 µM [falling, partial curve]; in assay [2] (setting [16]) it was 3.55 µM [falling, full curve, poor fit]; in assay [2] (setting [10]) it was 3.55 µM [falling, full curve, poor fit]; in assay [3] (setting [13]) it was 10.7 µM [rising, partial curve]. The values for the max response in assay [2] (setting [9]) and in assay [2] (setting [11]) were -58.6% and -60.8%, respectively.
For `OCCN1CCN(CC/C=C2/c3ccccc3Sc3ccc(C(F)(F)F)cc32)CC1`, the AC50 in assay [1] (measured here: GFP channel) was 15.8 µM [falling, single point]; in assay [1] (measured here: RFP channel) it was 14.1 µM [falling, partial curve]; in assay [3] (setting [12]) it was 23.9 µM [falling, full curve]; in assay [3] (setting [13]), 19 µM [falling, full curve]; in assay [4] (setting [14]) it was 23.1 µM [falling, partial curve]; in assay [4] (setting [15]), 23.1 µM [falling, single point]. Also, the AC50 in assay [8] was 2.24 µM [falling, full curve, poor fit]. Besides, the max response in assay [2] (setting [9]) turned out to be 40%; in assay [2] (setting [11]), 37.2%.

Values taken from PubChem BioAssay (NCATS).
